Laboratory results published in doi:10.1101/2022.01.26.477835.

Sequences of proteins named here, by UniProt entry; tags and fusion partners are left off. A change or cut given only in a name is not applied to a line headed by its entry. A line that says so, or that is headed by a name, gives the form on record, which may keep a tag or linker. Residues count along the entry.
UniProt Q8R455: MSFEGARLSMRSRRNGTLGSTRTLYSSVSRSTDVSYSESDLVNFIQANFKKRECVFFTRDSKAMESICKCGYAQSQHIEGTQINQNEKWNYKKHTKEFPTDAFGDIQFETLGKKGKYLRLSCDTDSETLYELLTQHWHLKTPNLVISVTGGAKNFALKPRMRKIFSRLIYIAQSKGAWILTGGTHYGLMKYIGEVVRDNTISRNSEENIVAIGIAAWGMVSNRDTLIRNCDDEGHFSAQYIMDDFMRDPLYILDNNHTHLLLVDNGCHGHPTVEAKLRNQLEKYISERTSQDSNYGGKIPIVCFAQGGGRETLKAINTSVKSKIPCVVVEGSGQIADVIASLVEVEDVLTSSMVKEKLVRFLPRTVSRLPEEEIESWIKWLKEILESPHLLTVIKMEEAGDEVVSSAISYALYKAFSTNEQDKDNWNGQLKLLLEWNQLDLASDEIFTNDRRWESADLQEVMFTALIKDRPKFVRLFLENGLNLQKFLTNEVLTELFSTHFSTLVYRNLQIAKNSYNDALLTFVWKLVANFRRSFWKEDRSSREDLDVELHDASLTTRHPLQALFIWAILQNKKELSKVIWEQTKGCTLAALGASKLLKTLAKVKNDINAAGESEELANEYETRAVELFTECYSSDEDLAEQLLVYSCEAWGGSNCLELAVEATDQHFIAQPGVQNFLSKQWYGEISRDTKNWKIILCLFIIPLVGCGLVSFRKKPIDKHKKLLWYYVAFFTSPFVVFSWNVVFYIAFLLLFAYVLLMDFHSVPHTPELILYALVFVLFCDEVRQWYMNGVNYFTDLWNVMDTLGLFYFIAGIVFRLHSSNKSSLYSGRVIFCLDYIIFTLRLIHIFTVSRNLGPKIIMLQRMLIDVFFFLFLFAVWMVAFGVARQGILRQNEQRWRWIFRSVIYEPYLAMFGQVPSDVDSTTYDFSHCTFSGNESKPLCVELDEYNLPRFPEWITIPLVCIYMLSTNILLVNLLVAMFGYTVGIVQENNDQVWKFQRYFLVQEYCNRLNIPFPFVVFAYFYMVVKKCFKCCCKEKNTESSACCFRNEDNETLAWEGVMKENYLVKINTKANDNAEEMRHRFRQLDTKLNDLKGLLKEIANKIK
GST-tagged C-terminus of TRPM8 (GST-M8C): residues 980-1104 of Q8R455
UniProt P06239: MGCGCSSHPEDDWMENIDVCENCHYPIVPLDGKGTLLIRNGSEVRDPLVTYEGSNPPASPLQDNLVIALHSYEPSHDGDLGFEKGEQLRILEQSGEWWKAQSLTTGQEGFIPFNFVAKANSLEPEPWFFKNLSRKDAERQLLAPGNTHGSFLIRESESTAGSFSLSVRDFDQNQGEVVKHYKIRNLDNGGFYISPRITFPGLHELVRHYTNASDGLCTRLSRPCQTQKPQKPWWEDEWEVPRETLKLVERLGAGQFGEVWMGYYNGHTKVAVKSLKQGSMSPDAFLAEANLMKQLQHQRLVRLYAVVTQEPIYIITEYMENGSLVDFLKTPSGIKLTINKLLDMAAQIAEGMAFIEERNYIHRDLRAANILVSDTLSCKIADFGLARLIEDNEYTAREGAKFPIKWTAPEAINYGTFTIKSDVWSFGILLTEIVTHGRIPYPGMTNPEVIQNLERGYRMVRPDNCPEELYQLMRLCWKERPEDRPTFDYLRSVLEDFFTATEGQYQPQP
UniProt P51451: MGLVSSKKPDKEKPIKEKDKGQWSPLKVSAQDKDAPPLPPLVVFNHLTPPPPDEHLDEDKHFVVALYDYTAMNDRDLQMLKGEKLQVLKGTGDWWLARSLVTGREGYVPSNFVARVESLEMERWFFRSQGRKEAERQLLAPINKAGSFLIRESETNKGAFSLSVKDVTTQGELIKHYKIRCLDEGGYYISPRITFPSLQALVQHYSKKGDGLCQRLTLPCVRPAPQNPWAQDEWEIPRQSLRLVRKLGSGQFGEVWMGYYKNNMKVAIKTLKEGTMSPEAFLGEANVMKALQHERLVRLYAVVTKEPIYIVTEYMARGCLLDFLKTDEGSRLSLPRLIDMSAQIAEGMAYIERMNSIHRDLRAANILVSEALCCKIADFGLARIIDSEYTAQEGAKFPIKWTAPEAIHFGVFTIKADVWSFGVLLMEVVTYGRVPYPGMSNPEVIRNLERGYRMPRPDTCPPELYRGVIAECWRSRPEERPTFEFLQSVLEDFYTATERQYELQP
UniProt P63104: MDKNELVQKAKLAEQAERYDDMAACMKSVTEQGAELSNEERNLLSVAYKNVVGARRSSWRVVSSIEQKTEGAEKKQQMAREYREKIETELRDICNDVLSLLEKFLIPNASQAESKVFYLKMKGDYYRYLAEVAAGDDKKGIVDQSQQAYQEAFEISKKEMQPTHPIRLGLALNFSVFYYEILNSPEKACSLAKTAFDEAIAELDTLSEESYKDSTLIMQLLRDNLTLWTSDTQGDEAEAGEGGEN

Columns and labels:
[1] = molecular target: Flag-tagged full-length TRPM8 (Flag-TRPM8) (rat) (UniProt Q8R455); assay: affinity purification with mass spectrometry
[2] = molecular target: GST-tagged C-terminus of TRPM8 (GST-M8C) (rat) (UniProt Q8R455); assay: affinity purification with mass spectrometry

## LCK (endogenous) (from UniProt P06239 1-509) (enzyme)
[1]
  binding: binds

## BLK (endogenous) (from UniProt P51451 1-505) (enzyme)
[1]
  binding: binds

## 14-3-3ζ (endogenous) (from UniProt P63104 1-245)
[2]
  binding: binds

No constants are given. Whether binding was seen depends on the method and setting. Binding seen in cells or lysates may run through a third protein. These calls come from enrichment with a bait or labelling near it, and not all partners need be listed.
